Test results reported in PubChem BioAssay AID540256 (National Center for Advancing Translational Sciences (NCATS), 2011).
Out of some 300,000 compounds screened, about 3,700 (1.2%) were called active. Inconclusive means that the source gave no clear call. Such entries were picked first, then a sample of the others. Calls come from the whole dose curve; tested in HEK293 cells. Where the call is inconclusive, the potency comes from a doubtful curve fit.

experiment: qHTS for Inhibitors of binding or entry into cells for Lassa Virus; details: Lassa virus pseudotype entry inhibition, cell reporter; series mostly up to 37.9 µM; note: nearly all actives have a fitted effect of over 50% in size
Potency is the fitted concentration of half-maximal effect.

SMILES	Potency
O=C(NCC(c1ccco1)N1CCOCC1)c1c(F)cccc1F (stereo not given)	inactive
CCOc1cc(/C=C2\SC(N3CCCCC3)=NC2=O)ccc1O	inconclusive: 7.08 µM [inhibitor, full curve, poor fit]
CC(=C/c1ccco1)/C=N/NC(=O)CSc1nnc(SCc2ccc(C)cc2)s1	inconclusive: 18.4 µM [inhibitor, partial curve, poor fit]
COc1ccc(C(=O)N/N=C/c2ccc(OC)c(COc3ccc(F)cc3F)c2)cc1	active: 2.24 µM
CC(C)(C)n1nnnc1C(c1ccncc1)N(Cc1ccccc1)Cc1ccco1 (stereo not given)	inactive
CCOC(=O)c1c(-c2ccccc2)oc2ccc(OCC(O)CN(C)C)cc12 (stereo not given)	inconclusive: 35.5 µM [inhibitor, single point]
CC1=NN(c2ccccc2C)C(=O)C1	inactive
Cc1ccc2cc(CCNS(=O)(=O)c3ccc(Br)cc3)c(=O)[nH]c2c1C	inconclusive: 1.26 µM [inhibitor, single point]
CCOc1ccc(S(=O)(=O)N(CC(=O)Nc2cccnc2)c2ccccc2)cc1	inconclusive: 31.6 µM [inhibitor, single point]
Cc1cc(N2CCN(C)CC2)nc2ccc(NC(=O)Nc3ccccc3Br)cc12	inconclusive: 35.5 µM [inhibitor, single point]
Cc1c(C(=O)N(C)Cc2nc3ccccc3c(=O)[nH]2)oc2ccccc12	inconclusive: 1.12 µM [inhibitor, full curve, poor fit]
Clc1cccc2c1Sc1ccccc1CC2N1CCNCC1 (stereo not given)	active: 5.17 µM
CC1=C(C(N)=O)C(c2ccc(C(C)C)cc2)n2nc(SCc3ccccc3)nc2N1 (stereo not given)	inconclusive: 0.562 µM [inhibitor, full curve, poor fit]
Cc1cc(Br)c(NC(=O)CN2CC=C(c3ccccc3)CC2)c(Br)c1	inactive
COc1ccc(CCNC(=O)c2ccc3c(c2)N(Cc2ccc(C)cc2)CCS3)cc1OC	inconclusive: 2 µM [inhibitor, partial curve, poor fit]
Cc1ccccc1NC(=O)Cn1nc(C(=O)O)c2ccccc2c1=O	inactive
O=C(NC(=S)NCc1ccccc1)c1cccc(Cl)c1	inconclusive: 6.31 µM [inhibitor, full curve]
COc1ccc(CNC(=O)Cn2c(=O)oc3cc(S(=O)(=O)N4CCCCCC4)ccc32)cc1	inconclusive: 5.62 µM [inhibitor, single point]
COc1ccccc1CNC(=O)CCCCn1c(=O)c2ccccc2n(Cc2c(C)cc(C)cc2C)c1=O	inactive
CCCc1cc(C(=O)Nc2cccc3ccccc23)n(C)n1	inconclusive: 12.6 µM [inhibitor, partial curve, poor fit]
COc1ccccc1CNC(=O)CCc1c(C)c2ccc(OC)c(C)c2oc1=O	inactive
Cc1c(C(=O)Nc2ccc(F)c(F)c2)oc2ccc(S(=O)(=O)N3CCCCC3)cc12	inactive
N#C/C(=C/c1ccc(-c2cccc([N+](=O)[O-])c2)o1)C(=O)Nc1nc(-c2cccs2)cs1	inactive

Taken from above:
Potency with COc1ccc(CNC(=O)Cn2c(=O)oc3cc(S(=O)(=O)N4CCCCCC4)ccc32)cc1 is entered as inconclusive: 5.62 µM [inhibitor, single point]
Potency with COc1ccc(CCNC(=O)c2ccc3c(c2)N(Cc2ccc(C)cc2)CCS3)cc1OC is entered as inconclusive: 2 µM [inhibitor, partial curve, poor fit]

Additional entries follow.

SMILES	Potency
O=S(=O)(NCC(c1ccco1)S(=O)(=O)c1ccccc1)c1ccccc1 (stereo not given)	inconclusive: 17.8 µM [activator, single point]
CC(C)[C@H](Nc1ccc(S(=O)(=O)N2CCOCC2)cc1[N+](=O)[O-])C(=O)OCC(=O)N(C(C)C)C(C)C	inconclusive: 23.1 µM [inhibitor, partial curve, poor fit]
O=C(Nc1ccccc1)[C@@H]1CCCN1S(=O)(=O)c1ccc(Cl)cc1	inactive
CC1(C)NC(=O)N(CCOCCOc2ccccc2)C1=O	inactive
O=C(Nc1nc(-c2nc3ccccc3s2)cs1)c1ccc(S(=O)(=O)N2CCOCC2)cc1	inactive
CC(C)(Oc1ccc(Cl)cc1)C(=O)N/N=C/c1cn[nH]c1-c1ccccc1	inconclusive: 8.2 µM [inhibitor, partial curve, poor fit]
NC(=O)c1ccc(NC(=O)CSC2=Nc3ccccc3C3CC=NN23)cc1 (stereo not given)	inconclusive: 29.1 µM [activator, single point]
CCOCCCNC(=O)C(c1ccc(C)cc1)N(Cc1ccc2c(c1)OCO2)C(=O)c1ccccn1 (stereo not given)	inconclusive: 0.891 µM [inhibitor, full curve, poor fit]
CN(CC(=O)Nc1cccc(Cl)c1)S(=O)(=O)c1ccc2[nH]c3c(c2c1)CCCC3	inactive
CCOc1ccccc1NC(=O)c1c(NC(=O)CCC(=O)O)sc2c1CCCCC2	inconclusive: 12.6 µM [activator, single point]
COc1c(C)cc(S(=O)(=O)Nc2cccc(-c3ccc(N4CCOCC4)nn3)c2)c(C)c1C	inactive
CCN1CCN(c2ncc(C(=O)N3CCCc4ccccc43)c3ccccc23)CC1	inactive
CC(CCc1ccccc1)NC(=S)NC(=O)c1ccco1 (stereo not given)	inconclusive: 12.6 µM [inhibitor, single point]
O=C(Nc1nnc(C2=COCCO2)o1)c1cccc(C(F)(F)F)c1	inconclusive: 11.2 µM [inhibitor, single point]
CCOC(=O)c1c(N)n(CCCOC(=O)c2ccco2)c2nc3ccccc3nc12	inconclusive: 28.2 µM [inhibitor, single point]
Cc1ccc(S(=O)(=O)NCC(=O)OCC(=O)c2ccc(Br)s2)cc1	inconclusive: 12.6 µM [activator, single point]
O=C1c2ccccc2C(=O)N1CCOc1ccccc1	inconclusive: 12.6 µM [activator, partial curve, poor fit]
CN(CCOCCOc1ccc(Cl)cc1Br)Cc1ccccc1	inconclusive: 35.5 µM [inhibitor, partial curve, poor fit]
O=C(CN1CCN(Cc2ccccc2Cl)CC1)N/N=C/c1ccco1	inactive
NC(=O)COC(=O)CNC(=O)c1sc2ccccc2c1Cl	inactive
CC(NC(=O)CSc1n[nH]c(-c2ccccc2Cl)n1)c1nc2ccccc2n1C (stereo not given)	inactive
CCOc1ccc(Br)cc1S(=O)(=O)Nc1ccc(NC(=O)c2ccccc2F)cc1	inactive
